# Test results from PMC7819943, “Rice protein-binding microarrays: a tool to detect cis-acting elements near promoter regions in rice”.
# This is one part of the list.
# Target: T1, OsSMF1 (Oryza sativa, UniProt Q6ZLB0 1-436)
# T1 sequence: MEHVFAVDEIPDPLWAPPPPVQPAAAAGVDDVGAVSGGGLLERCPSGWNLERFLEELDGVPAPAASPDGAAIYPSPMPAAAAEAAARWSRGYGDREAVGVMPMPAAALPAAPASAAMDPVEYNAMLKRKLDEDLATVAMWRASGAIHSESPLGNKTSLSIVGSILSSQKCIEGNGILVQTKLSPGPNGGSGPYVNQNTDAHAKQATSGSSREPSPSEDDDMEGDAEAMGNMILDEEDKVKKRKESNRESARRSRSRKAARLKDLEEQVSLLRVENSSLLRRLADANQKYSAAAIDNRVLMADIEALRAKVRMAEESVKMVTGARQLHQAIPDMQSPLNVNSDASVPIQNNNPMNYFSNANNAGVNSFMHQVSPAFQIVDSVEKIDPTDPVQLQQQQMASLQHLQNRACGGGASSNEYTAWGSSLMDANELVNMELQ
# Assay: protein-binding microarray (RPBM); PBS, 2% BSA, 51.3 ng/ul salmon testes DNA, 50 uM zinc acetate, 200 nM TF, 25 C, 1 h; high values mean tight binding
# Conditions: protein: recombinant; tags: N-terminal polyhistidine and DsRed monomer fusion (pET32a); chain copies: 2; label: CyDye5-dUTP incorporated in the synthesized complementary strand; 3' TTTTT single-stranded linker to array surface; dsDNA, one strand shown
# Outline: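 Per-feature fluorescence intensity (arbitrary units), read on an Axon 4000B scanner, is the binding signal. Transcription factors carrying an N-terminal polyhistidine tag and DsRed fusion were expressed in E. coli BL21-CodonPlus and purified on Ni–NTA. A custom Agilent array, made double-stranded by primer extension with Cy5-dUTP and blocked with 2% BSA, was incubated with 200 nM protein in PBS, 2% BSA, salmon testes DNA and 50 µM zinc acetate at 25 °C for 1 h and then washed.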
row,Sequence,binding signal
1,CGGCTCCCGGGACACGACACAGCGCACGCCCAGAGCGCGCCGGAGTCACCTAGTGCAG,3700 fluorescence intensity (a.u.)
2,CACTCCAAACATGTTTACATGTCGACGGCTGACAAGATATCGGAGTCACCTAGTGCAG,3280 fluorescence intensity (a.u.)
3,TTCGAATTTCGCCCTTACGATGTTAGCAACGGTGCTGACGCGGAGTCACCTAGTGCAG,4700 fluorescence intensity (a.u.)
4,TTCTTCCCTTTGAGCAGCAGCAGCAGTGAGCCGTCCTGTGCGGAGTCACCTAGTGCAG,32300 fluorescence intensity (a.u.)
5,TGGTCAAAAGAAATTGTTTCCTCCATTTCCTCCTCAGCACCGGAGTCACCTAGTGCAG,3730 fluorescence intensity (a.u.)
6,CAGCTGGGCCCCACGCGGCAGTGACACGCAACGGACGTGGCGGAGTCACCTAGTGCAG,9030 fluorescence intensity (a.u.)
7,CAGCTGGGTGCTGATGACTGTCTTGTCATCATTTGATTATCGGAGTCACCTAGTGCAG,6280 fluorescence intensity (a.u.)
8,ATTTGATAAATGGGATGCCACGTGTACACCACGTCAACAGCGGAGTCACCTAGTGCAG,31000 fluorescence intensity (a.u.)
9,ATCTTTTGGCTGCCAGCTTGGTGAGGTTACTAATAAGCTGCGGAGTCACCTAGTGCAG,3290 fluorescence intensity (a.u.)
10,CCTGTTCGATGGCCCCGGGAACACCCATGAGCGTGGCACACGGAGTCACCTAGTGCAG,3510 fluorescence intensity (a.u.)
11,ATTCCAACATTTATAATGTACAAACACAGAACAGGACATGCGGAGTCACCTAGTGCAG,3230 fluorescence intensity (a.u.)
12,CCCGAGAGCCGTACGTACTACAGAAATACAAGTGCTAACTCGGAGTCACCTAGTGCAG,35900 fluorescence intensity (a.u.)
13,CCTCCTTGCTTGCTTACATTGCCGCCACCGCCACCTCACACGGAGTCACCTAGTGCAG,8360 fluorescence intensity (a.u.)
14,CCTCTAATACGTGGGAGGTGGCGGCAGTGGCTAATCCGTACGGAGTCACCTAGTGCAG,3790 fluorescence intensity (a.u.)
15,TCTTTGCTGACTAGATTGCCATGTTGGCACCATATGTATACGGAGTCACCTAGTGCAG,18300 fluorescence intensity (a.u.)
16,GCAGAGGGTCCCGATAACGATGACCCTACCTGCCAGTCAACGGAGTCACCTAGTGCAG,4090 fluorescence intensity (a.u.)
17,GGTGAGCGACGATGGCGATGGCGTCGTCGTCGTCGGCGTCCGGAGTCACCTAGTGCAG,37700 fluorescence intensity (a.u.)
18,AGAGAGATAGTGGTGGTGGTGGTGGGGCACTGAGAATCCACGGAGTCACCTAGTGCAG,17600 fluorescence intensity (a.u.)
19,AATCGTAGTGTAATTACACTGTAACTTGCATGTAACTACACGGAGTCACCTAGTGCAG,21300 fluorescence intensity (a.u.)
20,CCGTTCTCCAGATCCGCACCGCCACCGCCGCCGCCGCGCGCGGAGTCACCTAGTGCAG,3250 fluorescence intensity (a.u.)
21,CAAGAATGTACTGAGTACGTCTCAATCCACGTGTTTGAGCCGGAGTCACCTAGTGCAG,4960 fluorescence intensity (a.u.)

row,Sequence,binding signal
1,CAACTCAAATGCTTTAACAATGTCGGATGACATGGAATGACGGAGTCACCTAGTGCAG,6080 fluorescence intensity (a.u.)
2,ATTGTGCTCAAAATAATAAATCCTGACGTCAATTGTCGTCCGGAGTCACCTAGTGCAG,4590 fluorescence intensity (a.u.)
3,CCACCGCCACTCCCACCCAACCACAGTTCTAGTCTCCCCTCGGAGTCACCTAGTGCAG,26000 fluorescence intensity (a.u.)
4,TGGGCGTCGGCCTGCGCGAGCAGAGGCGCCACGGGGCTCCCGGAGTCACCTAGTGCAG,3320 fluorescence intensity (a.u.)
5,TGGTTTGCGGTGGTGCGCGCGCGGCTTCTTCTCGGGGTGGCGGAGTCACCTAGTGCAG,3650 fluorescence intensity (a.u.)
6,AATGGGCATGGTGAAACTTGGCAGTGACAAGGGATTTGCACGGAGTCACCTAGTGCAG,3620 fluorescence intensity (a.u.)
7,CGAGAGACGCGTCACCTCCTCCCCGCCGCCGCCGCCGCCGCGGAGTCACCTAGTGCAG,7500 fluorescence intensity (a.u.)
8,TCTCTCGAATTCGCGAACACGCGACACGACGTCATTTTCTCGGAGTCACCTAGTGCAG,6350 fluorescence intensity (a.u.)
9,CAGAATCTAAAGCTCCCTCAAACAGGCCATATATCGATCCCGGAGTCACCTAGTGCAG,3160 fluorescence intensity (a.u.)
10,CAAGGCAGTCATTTTGCCCTCGGATCGGGTGACGTGGCGCCGGAGTCACCTAGTGCAG,36500 fluorescence intensity (a.u.)
11,CGATGACTGAATTATCACACTTACGTATGGTGACTATTAACGGAGTCACCTAGTGCAG,3500 fluorescence intensity (a.u.)
12,TTGCTAGTATTTTGGTACGTCACCTGTATTGGAGTCAGTTCGGAGTCACCTAGTGCAG,5540 fluorescence intensity (a.u.)
13,ATGTGTTCTGATAGTAATAAACAAATATGTTATATTACTACGGAGTCACCTAGTGCAG,3270 fluorescence intensity (a.u.)
14,TGTTGCTAACCTCCAGATGGAGCTCCAGCAAGCACGTGATCGGAGTCACCTAGTGCAG,3200 fluorescence intensity (a.u.)
15,ACTCTTATTAATTCGAAAGATCCTACACACGTGTCGATTTCGGAGTCACCTAGTGCAG,9630 fluorescence intensity (a.u.)
16,CCCTCCATCACCACCATGGTGCCATCAACATTGAACTGTTCGGAGTCACCTAGTGCAG,3390 fluorescence intensity (a.u.)
17,TCGCGCGCGGCACACCTTCACGCTGCACCAATCCGCATCGCGGAGTCACCTAGTGCAG,4370 fluorescence intensity (a.u.)
18,GTTCATTAGCGCGTGATTAATTAAGTTTTAGTTATTTTCTCGGAGTCACCTAGTGCAG,25200 fluorescence intensity (a.u.)
19,GCCGCGCCGCGCCGTGGCGTGGCGTGGCGTGGCGCGGCCACGGAGTCACCTAGTGCAG,6530 fluorescence intensity (a.u.)
20,TTGTCGAGCTCGTGCATCACATGTGGCTCGTAAACGCGCCCGGAGTCACCTAGTGCAG,3930 fluorescence intensity (a.u.)
21,ACTTTATGACACACTGTGGTGTCAAAAGGCCCCTAAATTGCGGAGTCACCTAGTGCAG,3220 fluorescence intensity (a.u.)

# An excerpt of these results, as tab-separated lines.
row	Sequence	binding signal
18	GTTCATTAGCGCGTGATTAATTAAGTTTTAGTTATTTTCTCGGAGTCACCTAGTGCAG	25200 fluorescence intensity (a.u.)
19	GCCGCGCCGCGCCGTGGCGTGGCGTGGCGTGGCGCGGCCACGGAGTCACCTAGTGCAG	6530 fluorescence intensity (a.u.)
20	TTGTCGAGCTCGTGCATCACATGTGGCTCGTAAACGCGCCCGGAGTCACCTAGTGCAG	3930 fluorescence intensity (a.u.)
